Test results as given in patent US5663149A (priority 1994, dated 1997).

Experiment: general procedure: solution-phase peptide synthesis
Conditions: coupling step
“L-Dolavalyl-L-Valyl-N-Methyl-(S,S,R)-Dolaisoleuinyl-(S,R,R)-Dolaproinyl-L- (p-Chloro)phenylalanine N-2-(6-Chloro)benzothiazole Amide” showed a step yield of 56%.
In the case of “L-Dolavalyl-L-Valyl-N-Methyl-(S,S,R)-Dolaisoleuinyl-(S,R,R)-Dolaproinyl-L- Isoleucine N-3-Quinoline Amide”, the step yield is reported as 81%.
Work on “L-Dolavalyl-L-Valyl-N-Methyl-(S,S,R)-Dolaisoleuinyl-(S,R,R)-Dolaproinyl-L- Methionine N-1-(2-p-Chlorophenylethyl) Amide” yielded a step yield of 77%.
Substance “L-Dolavalyl-L-Valyl-N-Methyl-(S,S,R)-Dolaisoleuinyl-(S,R,R)-Dolaproinyl-L- Methionine N-2,5-Dichlorophenyl Amide” has a step yield of 87%.
“L-Dolavalyl-L-Valyl-N-Methyl-(S,S,R)-Dolaisoleuinyl-(S,R,R)-Dolaproinyl-L- Methionine N-2-Benzothiazole Amide” gave a step yield of 87%.
Work on “L-Dolavalyl-L-Valyl-N-Methyl-(S,S,R)-Dolaisoleuinyl-(S,R,R)-Dolaproinyl-L- Methionine N-2-Chlorophenyl Amide” yielded a step yield of 89%.
Substance “L-Dolavalyl-L-Valyl-N-Methyl-(S,S,R)-Dolaisoleuinyl-(S,R,R)-Dolaproinyl-L- Methionine N-2-Pyridyl Amide” has a step yield of 77%.
Work on “L-Dolavalyl-L-Valyl-N-Methyl-(S,S,R)-Dolaisoleuinyl-(S,R,R)-Dolaproinyl-L- Methionine N-3-Chlorophenyl Amide” yielded a step yield of 88%.
“L-Dolavalyl-L-Valyl-N-Methyl-(S,S,R)-Dolaisoleuinyl-(S,R,R)-Dolaproinyl-L- Methionine N-3-Quinoline Amide” gave a step yield of 95%.
With “L-Dolavalyl-L-Valyl-N-Methyl-(S,S,R)-Dolaisoleuinyl-(S,R,R)-Dolaproinyl-L- Methionine N-4-Chlorophenyl Amide” the step yield was 79%.
Work on “L-Dolavalyl-L-Valyl-N-Methyl-(S,S,R)-Dolaisoleuinyl-(S,R,R)-Dolaproinyl-L- Phenylalanine N-2,5-Dichlorophenyl Amide” yielded a step yield of 46%.
In the case of “L-Dolavalyl-L-Valyl-N-Methyl-(S,S,R)-Dolaisoleuinyl-(S,R,R)-Dolaproinyl-L- Phenylalanine N-2-(6-Chloro)benzothiazole Amide”, the step yield is reported as 83%.
“L-Dolavalyl-L-Valyl-N-Methyl-(S,S,R)-Dolaisoleuinyl-(S,R,R)-Dolaproinyl-L- Phenylalanine N-2-(6-Fluoro)benzothiazole Amide” showed a step yield of 58%.
For “L-Dolavalyl-L-Valyl-N-Methyl-(S,S,R)-Dolaisoleuinyl-(S,R,R)-Dolaproinyl-L- Phenylalanine N-3-Chlorophenyl Amide”, the step yield was 77%.
In the case of “L-Dolavalyl-L-Valyl-N-Methyl-(S,S,R)-Dolaisoleuinyl-(S,R,R)-Dolaproinyl-L- Phenylalanine N-4-Chlorophenyl Amide”, the step yield is reported as 93%.
For “L-Dolavalyl-L-Valyl-N-Methyl-(S,S,R)-Dolaisoleuinyl-(S,R,R)-Dolaproinyl-L- Proline N-2-Benzothiazole Amide”, the step yield was 80%.
Substance “L-Dolavalyl-L-Valyl-N-Methyl-(S,S,R)-Dolaisoleuinyl-(S,R,R)-Dolaproinyl-L- Proline N-3-Quinoline Amide” has a step yield of 82%.
